No constants are given. Whether binding was seen depends on the method and setting. In cells and extracts the contact can be indirect. Some entries that bind do so weakly or less than the wild type.
Target: N-terminally FLAG-tagged karyopherin α1 (UniProt P52294)
Test: co-IP; HepAD38 induced (tet-) for 6 days, then co-transfected with FLAG-Kα1 and control vector or C1QBP for 2 more days; anti-FLAG precipitation, Western blot for HBc

Protein sequences, listed by entry. Tags and fused reporters are not part of them.
UniProt P52294: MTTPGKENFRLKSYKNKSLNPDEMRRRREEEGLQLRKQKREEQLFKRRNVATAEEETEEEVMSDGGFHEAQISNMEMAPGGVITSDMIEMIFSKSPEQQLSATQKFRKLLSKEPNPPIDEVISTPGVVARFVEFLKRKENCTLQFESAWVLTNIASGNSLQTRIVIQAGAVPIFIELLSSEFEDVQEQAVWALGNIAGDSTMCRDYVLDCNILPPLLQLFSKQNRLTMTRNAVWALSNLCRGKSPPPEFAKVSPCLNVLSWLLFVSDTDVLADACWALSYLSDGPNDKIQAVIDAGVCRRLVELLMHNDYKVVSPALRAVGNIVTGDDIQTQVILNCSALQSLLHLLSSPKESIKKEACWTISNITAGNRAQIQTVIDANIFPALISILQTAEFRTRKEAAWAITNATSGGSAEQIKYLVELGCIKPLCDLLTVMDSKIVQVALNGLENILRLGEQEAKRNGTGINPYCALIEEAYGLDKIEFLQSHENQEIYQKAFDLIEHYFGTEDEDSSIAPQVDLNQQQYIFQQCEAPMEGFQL
UniProt P03146: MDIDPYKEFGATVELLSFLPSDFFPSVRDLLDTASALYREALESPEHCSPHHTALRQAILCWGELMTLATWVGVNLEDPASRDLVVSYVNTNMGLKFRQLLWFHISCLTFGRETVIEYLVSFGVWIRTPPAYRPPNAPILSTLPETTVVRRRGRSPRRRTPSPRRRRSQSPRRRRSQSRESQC

Substance: HBV core protein (HBc) made in HepAD38 cells (from UniProt P03146 1-183)
- binding: binds
